HELM strings list residues between dots; [ac] is acetyl, [am] amide, other brackets name non-standard units.
assay: general procedure: Fmoc solid-phase peptide synthesis; polystyrene crosslinked with 1–5% divinylbenzene, 2-chlorotrityl linker; settings: whole synthesis

Row | Substance | crude HPLC purity
1 | Tyr-Val-Tyr-Arg-Arg-Phe-Leu-Val-^DPro^LPro | 81%
2 | Tyr-Val-Arg-Arg-Arg-Phe-Leu-Val-^DPro^LPro | 76%
3 | Arg-Leu-Leu-Tyr-Arg-Arg-Leu-Tyr-Tyr-^DPro^LPro | 63%
4 | PEPTIDE1{R.L.F.F.R.R.R.L.F.R.[dP].P}$PEPTIDE1,PEPTIDE1,1:R1-12:R2$$$V2.0 | 56%
5 | Arg-Arg-Leu-Tyr-Leu-Arg-Arg-Arg-Tyr-Tyr-Leu-Tyr-Tyr-Arg-^DPro^LPro | 89%
6 | Tyr-Lys-Leu-Gln-Leu-Lys-Trp-Arg-Arg-Phe-Lys-Tyr-Gln-Val-Lys-Phe-^DPro^LPro | 21%
7 | Leu-Leu-Tyr-Tyr-Arg-Arg-Leu-Tyr-Arg-^DPro^LPro | 33%
8 | Arg-Leu-Phe-Phe-Arg-Arg-Leu-Phe-Leu-^DPro^LPro | 35%
9 | Leu-Tyr-Tyr-Arg-Arg-Arg-Leu-Tyr-Arg-^DPro^LPro | 30%
10 | Arg-Leu-Leu-Phe-Arg-Arg-Leu-Phe-Phe-^DPro^LPro | 68%
11 | Leu-Tyr-Leu-Tyr-Arg-Arg-Leu-Tyr-Arg-^DPro^LPro | 67%
12 | Arg-Tyr-Leu-Tyr-Leu-Arg-Arg-Arg-Tyr-Leu-Tyr-Leu-Arg-Arg-^DPro^LPro | 53%
13 | PEPTIDE1{K.R.L.K.Y.W.R.R.R.W.Y.V.K.V.L.R.[dP].P}$PEPTIDE1,PEPTIDE1,1:R1-18:R2$$$V2.0 | 34%
14 | Leu-Phe-Phe-Arg-Arg-Arg-Leu-Phe-Arg-^DPro^LPro | 52%
15 | Lys-Arg-Leu-Lys-Tyr-Trp-Arg-Arg-Gly-Trp-Tyr-Val-Lys-Val-Leu-Arg-^DPro^LPro | 27%
16 | Arg-Arg-Leu-Tyr-Leu-Arg-Arg-Arg-Tyr-Leu-Tyr-Leu-Tyr-Arg-^DPro^LPro | 47%
17 | Arg-Phe-Leu-Phe-Leu-Arg-Arg-Arg-Phe-Phe-Leu-Phe-Arg-Arg-^DPro^LPro | 78%
18 | Arg-Tyr-Leu-Tyr-Arg-Arg-Leu-Tyr-Leu-^DPro^LPro | 66%
19 | Tyr-Val-Arg-Lys-Gly-Phe-Leu-Val-^DPro^LPro | 86%
20 | Lys-Val-Tyr-Arg-Arg-Phe-Leu-Val-^DPro^LPro | 75%
21 | Arg-Tyr-Tyr-Tyr-Arg-Arg-Arg-Leu-Leu-Arg-^DPro^LPro | 70%

Row | Substance | crude HPLC purity
22 | Arg-Arg-Leu-Phe-Leu-Arg-Arg-Arg-Phe-Phe-Leu-Phe-Phe-Arg-^DPro^LPro | 34%
23 | Arg-Phe-Leu-Arg-Arg-Phe-Phe-Leu-Arg-^DPro^LPro | 30%
24 | Tyr-Lys-Leu-Gln-Leu-Gln-Lys-Lys-Gly-Trp-Gln-Tyr-Gln-Val-Lys-Phe-^DPro^LPro | 84%
25 | Leu-Leu-Phe-Phe-Arg-Arg-Leu-Phe-Arg-^DPro^LPro | 35%
26 | Tyr-Val-Arg-Arg-Arg-Trp-Leu-Val-^DPro^LPro | 35%
27 | Arg-Phe-Phe-Phe-Arg-Arg-Arg-Leu-Leu-Arg-^DPro^LPro | 45%
28 | Tyr-Lys-Leu-Arg-Leu-Lys-Tyr-Arg-Arg-Trp-Lys-Tyr-Arg-Val-Lys-Phe-^DPro^LPro | 34%
29 | Lys-Arg-Leu-Tyr-Tyr-Trp-Arg-Arg-Gly-Trp-Tyr-Val-Phe-Val-Leu-Arg-^DPro^LPro | 39%
30 | Arg-Phe-Phe-Arg-Arg-Arg-Leu-Phe-Arg-^DPro^LPro | 26%
31 | Arg-Leu-Leu-Tyr-Tyr-Arg-Arg-Arg-Tyr-Leu-Leu-Tyr-Arg-Arg-^DPro^LPro | 29%
32 | Leu-Tyr-Leu-Arg-Arg-Tyr-Leu-Tyr-Arg-^DPro^LPro | 29%
33 | Arg-Leu-Tyr-Tyr-Arg-Arg-Leu-Tyr-Leu-^DPro^LPro | 33%
34 | Arg-Tyr-Leu-Tyr-Arg-Arg-Arg-Leu-Tyr-Arg-^DPro^LPro | 41%
35 | Phe-Leu-Leu-Phe-Arg-Arg-Leu-Phe-Arg-^DPro^LPro | 67%
36 | Arg-Phe-Leu-Arg-Arg-Phe-Leu-Phe-Arg-^DPro^LPro | 33%
37 | Arg-Phe-Leu-Phe-Arg-Arg-Arg-Leu-Phe-Leu-^DPro^LPro | 50%
38 | Lys-Arg-Leu-Lys-Tyr-Val-Arg-Arg-Arg-Trp-Leu-Val-Lys-Val-Leu-Arg-^DPro^LPro | 70%
39 | Lys-Arg-Leu-Lys-Tyr-Val-Arg-Arg-Gly-Trp-Leu-Val-Lys-Val-Leu-Arg-^DPro^LPro | 38%
40 | Leu-Tyr-Leu-Tyr-Arg-Arg-Arg-Leu-Tyr-Arg-^DPro^LPro | 35%
41 | Arg-Phe-Leu-Arg-Arg-Arg-Leu-Phe-Arg-^DPro^LPro | 35%
42 | Arg-Arg-Leu-Leu-Tyr-Arg-Arg-Arg-Tyr-Leu-Leu-Tyr-Tyr-Arg-^DPro^LPro | 91%

Row | Substance | crude HPLC purity
43 | Arg-Tyr-Leu-Tyr-Arg-Arg-Leu-Leu-Arg-^DPro^LPro | 55%
44 | Arg-Phe-Leu-Phe-Arg-Arg-Leu-Leu-Arg-^DPro^LPro | 51%
45 | Tyr-Leu-Leu-Tyr-Arg-Arg-Leu-Tyr-Arg-^DPro^LPro | 57%
46 | Lys-Arg-Leu-Lys-Tyr-Trp-Arg-Arg-Gly-Trp-Lys-Val-Lys-Val-Leu-Arg-^DPro^LPro | 26%
47 | Arg-Leu-Leu-Leu-Tyr-Arg-Arg-Arg-Tyr-Leu-Tyr-Tyr-Arg-Arg-^DPro^LPro | 50%
48 | Lys-Arg-Leu-Tyr-Tyr-Trp-Arg-Arg-Arg-Trp-Lys-Val-Phe-Val-Leu-Arg-^DPro^LPro | 22%
49 | Arg-Phe-Leu-Phe-Leu-Arg-Arg-Arg-Phe-Leu-Phe-Leu-Arg-Arg-^DPro^LPro | 79%
50 | Lys-Val-Tyr-Lys-Gly-Phe-Leu-Trp-^DPro^LPro | 64%
51 | Arg-Tyr-Leu-Arg-Arg-Arg-Leu-Tyr-Arg-^DPro^LPro | 46%
52 | Arg-Arg-Leu-Leu-Tyr-Arg-Arg-Arg-Tyr-Leu-Tyr-Tyr-Leu-Arg-^DPro^LPro | 65%
53 | Lys-Arg-Leu-Tyr-Tyr-Trp-Arg-Arg-Arg-Trp-Tyr-Val-Phe-Val-Leu-Arg-^DPro^LPro | 35%
54 | PEPTIDE1{R.Y.Y.R.R.R.L.Y.R.[dP].P}$PEPTIDE1,PEPTIDE1,1:R1-11:R2$$$V2.0 | 90%
55 | Arg-Arg-Leu-Leu-Phe-Arg-Arg-Arg-Phe-Leu-Leu-Phe-Phe-Arg-^DPro^LPro | 42%
56 | Leu-Phe-Leu-Phe-Arg-Arg-Leu-Phe-Arg-^DPro^LPro | 38%
57 | PEPTIDE1{R.Y.L.L.Y.R.R.R.Y.L.L.Y.R.R.[dP].P}$PEPTIDE1,PEPTIDE1,1:R1-16:R2$$$V2.0 | 48%
58 | Trp-Val-Arg-Lys-Gly-Phe-Leu-Trp-^DPro^LPro | 70%
59 | Arg-Tyr-Leu-Tyr-Leu-Arg-Arg-Arg-Tyr-Tyr-Leu-Tyr-Arg-Arg-^DPro^LPro | 51%
60 | Arg-Tyr-Leu-Arg-Arg-Tyr-Tyr-Leu-Arg-^DPro^LPro | 65%
61 | Arg-Phe-Leu-Phe-Arg-Arg-Arg-Leu-Phe-Arg-^DPro^LPro | 37%
62 | Arg-Phe-Leu-Phe-Arg-Arg-Leu-Phe-Leu-^DPro^LPro | 57%

Reference: patent publication US7253146B2 (Polyphor Ltd, priority 2001, dated 2007)
